# Percent effect of library compounds

Chains of the proteins cited; added tags and fusions are not shown. Residues count along the entry.
UniProt P9WPC5, whole entry: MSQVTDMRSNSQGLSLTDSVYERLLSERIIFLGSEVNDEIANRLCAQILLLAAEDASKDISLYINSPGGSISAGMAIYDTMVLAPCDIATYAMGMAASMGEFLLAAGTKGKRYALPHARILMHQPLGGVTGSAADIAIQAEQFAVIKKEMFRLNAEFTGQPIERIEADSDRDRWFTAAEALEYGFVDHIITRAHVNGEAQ
UniProt P9WPC3, whole entry partner: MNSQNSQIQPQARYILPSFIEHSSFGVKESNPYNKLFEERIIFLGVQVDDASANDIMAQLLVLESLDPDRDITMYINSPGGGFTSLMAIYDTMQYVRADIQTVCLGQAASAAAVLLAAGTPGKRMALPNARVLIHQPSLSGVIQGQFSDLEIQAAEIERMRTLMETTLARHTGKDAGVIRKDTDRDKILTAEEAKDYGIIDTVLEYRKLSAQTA
UniProt A4I591, 1-473: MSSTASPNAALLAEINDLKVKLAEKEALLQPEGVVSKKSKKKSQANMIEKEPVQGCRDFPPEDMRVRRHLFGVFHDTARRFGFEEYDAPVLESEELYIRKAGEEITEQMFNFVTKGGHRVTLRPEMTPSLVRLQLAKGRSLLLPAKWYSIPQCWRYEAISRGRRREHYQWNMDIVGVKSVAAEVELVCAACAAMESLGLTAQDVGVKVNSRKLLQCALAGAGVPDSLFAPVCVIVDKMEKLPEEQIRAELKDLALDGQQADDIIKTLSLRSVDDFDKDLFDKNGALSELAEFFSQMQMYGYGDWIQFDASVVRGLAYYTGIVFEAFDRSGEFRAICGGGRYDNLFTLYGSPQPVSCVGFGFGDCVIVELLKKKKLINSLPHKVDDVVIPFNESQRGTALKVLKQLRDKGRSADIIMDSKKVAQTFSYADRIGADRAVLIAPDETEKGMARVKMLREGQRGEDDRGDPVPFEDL

Measurements from “University of Dundee, Small-Polar-MMV Screening Library” (2021), ChEMBL document CHEMBL3988442.

ClpP1P2: 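ClpP1P2, Mycobacterium tuberculosis (UniProt P9WPC5 and UniProt P9WPC3). Protease assay of ClpP1P2, read by the AMC dye that it sets free. Concentration: 50 µM. Direction is inferred from only a few compounds that gave an IC50; most scored high, so higher reads as stronger inhibition. Most other retested compounds had strongly negative values. Size under these conditions: about 69,000 compounds, about 10 of them at 50% or above in at least one test.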
LiHisRS: 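Enzyme assay of histidyl-tRNA synthetase; the read-out is not stated. Target: Histidine-tRNA ligase, Leishmania infantum (UniProt A4I591). Compounds at 30 µM. Direction is inferred from retests: higher values go with stronger inhibition. The assay is labelled LdHisRS but filed under L. infantum. About 69,000 compounds were tested under these conditions; 0.6% (about 410) showed 50% or more at least once.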

Values are the deposited “Percent Effect”, in %.
How 0% and 100% were set is not recorded. Most values in the screen are low, and negative values occur.
The compounds are a random part of those screened.

Result for CNC(=O)C1CN(C(=O)Cc2ccc(OC)cc2)Cc2cn(C)nc21 (centres undefined) was ClpP1P2: -1.604%; LiHisRS: 11.19%. O=C(c1ccc(F)cc1F)N1CC[C@H](O)[C@@H](N2CCOCC2)CC1 gave ClpP1P2: -6.401%; LiHisRS: 11.43%. O=C(CC1=CCCCC1)Nc1ncn(CC(=O)N2CCCCCC2)n1 gave ClpP1P2: -19.58%; LiHisRS: 0%. O=C(c1cscn1)N1C[C@H]2CN(Cc3nccs3)C[C@H]2C1 gave ClpP1P2: -4.151%; LiHisRS: 7%. CS(=O)(=O)N1CCC2(CC1)CC(NCC1CC1)c1ccccc12 (centres undefined) read ClpP1P2: -11.72%; LiHisRS: 5.941%.

Cc1cc(=O)[nH]c(NC2CCN(S(=O)(=O)c3ccccc3)CC2)n1 gave ClpP1P2: -26.85%; LiHisRS: 5.369%. With O=C(CN1CCc2[nH]c3ccccc3c2C1)NCc1ccco1 the screen gave ClpP1P2: -6.14%; LiHisRS: 10%. For O=C(CCc1ccco1)N1CCCC(n2cccn2)C1 (centres undefined) the result was ClpP1P2: -24.71%; LiHisRS: 8.929%. For Cc1cc(C)c(CNc2cnn(CC(O)CN(C)C)c2)c(C)c1 (centres undefined) the result was ClpP1P2: 2.757%; LiHisRS: 5.882%. COc1ccc(Oc2ncccc2F)cc1CN1CCCC1 gave ClpP1P2: -2.453%; LiHisRS: 15.83%.

For CC(C)c1n[nH]c(C(=O)Nc2ccnn2C(C)C)c1Br the result was ClpP1P2: -2.847%; LiHisRS: -3.371%. O=C(CC1CCCO1)NS(=O)(=O)Cc1cc(-c2ccccc2)no1 (centres undefined) gave ClpP1P2: 8.208%; LiHisRS: 2.041%. Result for Cc1ccc(Cl)cc1NS(=O)(=O)c1cc(C(N)=O)n(C)c1 was ClpP1P2: 0.7329%; LiHisRS: 12.9%. Result for CC(=O)CN1CC2(CCNCC2)COc2ccccc2S1(=O)=O was ClpP1P2: -10.77%; LiHisRS: 2.564%. CCC(=O)c1ccc(OCC(=O)NC(C)c2nnn[nH]2)cc1 (centres undefined) read ClpP1P2: -5.044%; LiHisRS: 21.13%.

Cc1cccc(-c2nc(CN3CCOCS3(=O)=O)c(C)o2)c1 gave ClpP1P2: 0.8928%; LiHisRS: 15.79%. With COCCN1CCc2ncc(CNc3cc(N(C)C)ncn3)n2CC1 the screen gave ClpP1P2: -16.45%; LiHisRS: 11.97%. For CC(C)c1nc(CSc2nnc(-c3cccs3)n2CC(N)=O)no1 the result was ClpP1P2: 3.384%; LiHisRS: 22.67%. CC(=O)Nc1ccc(S(=O)(=O)NC(=O)CCC2CCCO2)cc1 (centres undefined) read ClpP1P2: -0.2838%; LiHisRS: 21.43%. Result for Clc1snnc1CN1CCOC(CNc2cccnn2)C1 (centres undefined) was ClpP1P2: -5.808%; LiHisRS: 16.44%.

CN(C)CCO[C@H]1CN(C(=O)c2ccc3c(c2)OCO3)[C@@H]2COC[C@H]12 read ClpP1P2: 7.569%; LiHisRS: 13.68%. Result for CSCC(CCO)NC(=O)Nc1ccc(Br)cc1 (centres undefined) was ClpP1P2: 1.106%; LiHisRS: 18.07%. With CCN(C(=O)CCCOc1ccccc1F)c1ccncc1 the screen gave ClpP1P2: -4.368%; LiHisRS: 20%. COc1ccc(CCC2CCCN(C(=O)c3cnc(N)nc3C)C2)cc1 (centres undefined) gave ClpP1P2: 0.3567%; LiHisRS: 13.99%. With Cc1ccsc1C(=O)N1CCC2(CC(C(=O)N(C)C(C)C)=NO2)C1 (centres undefined) the screen gave ClpP1P2: -12.5%; LiHisRS: 1.064%.

Cc1nc(CN2CCCC2c2noc(C3CC3)n2)oc1C (centres undefined) read ClpP1P2: -16.2%; LiHisRS: 16.51%. Result for O=C(Nc1nc2c(s1)CN(S(=O)(=O)C1CC1)CC2)c1ccc(=O)[nH]c1 was ClpP1P2: -16.76%; LiHisRS: 20.51%. Cc1cnn(CCNCc2ccc(OCc3ccncc3)cc2)c1 gave ClpP1P2: 12.74%; LiHisRS: 28.7%. CC(C)NC(=O)N1CCOC2(CCCNC2)C1 (centres undefined) read ClpP1P2: -11.71%; LiHisRS: 7.767%. N#Cc1c(C2CCOC2)cc(-c2ccc(N3CCCCC3)cc2)nc1N (centres undefined) gave ClpP1P2: -100.4%; LiHisRS: 19.44%.

With Cc1ccc(C)c(OCCN2CCC(N3CCNC3=O)CC2)c1 the screen gave ClpP1P2: 4.787%; LiHisRS: 18.46%. CCCc1ccc(C(C)Nc2ncnc3c2CCNC3)cc1 (centres undefined) read ClpP1P2: -16.88%; LiHisRS: 16.13%. For O=C(c1cccc(F)c1)N1CC[C@H]2[C@H]1CCN2CC1CCOCC1 the result was ClpP1P2: 3.926%; LiHisRS: 15%. For Cn1c(N)nnc1SCc1c(F)cccc1Br the result was ClpP1P2: -14.09%; LiHisRS: 8.889%. CCc1nc(C)c(C(=O)N2CCCN(Cc3cnn(C)c3)CC2)s1 read ClpP1P2: 2.216%; LiHisRS: 8.264%.

Result for CCN1CC2(CCC1=O)CCN(C(=O)c1ccc(C)cc1O)CC2 was ClpP1P2: -21.6%; LiHisRS: 20.99%.

For reference, 2 entries once more:

SMILES	ClpP1P2	LiHisRS
CC(C)c1n[nH]c(C(=O)Nc2ccnn2C(C)C)c1Br	-2.847	-3.371
Clc1snnc1CN1CCOC(CNc2cccnn2)C1 (centres undefined)	-5.808	16.44